# Test results taken from PMC6277709, “Lipid-Modified Azurin of Neisseria gonorrhoeae Is Not Surface Exposed and Does Not Interact With the Nitrite Reductase AniA” (Frontiers in Microbiology, 2018).
# Protein sequences, listed by entry. Tags and fused reporters are not part of them. Residues count along the entry.
# UniProt P07211, residues 19-183: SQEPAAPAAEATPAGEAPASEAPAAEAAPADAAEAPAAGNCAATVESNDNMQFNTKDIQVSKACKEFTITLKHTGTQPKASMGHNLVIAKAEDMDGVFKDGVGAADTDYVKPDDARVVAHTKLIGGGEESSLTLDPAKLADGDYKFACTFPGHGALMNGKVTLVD
# These are yes or no findings as the source states them, for the method shown.
# B1: Nitrite reductase AniA of Neisseria gonorrhoeae FA1090, endogenous in living gonococci (enzyme)
# chain: CGGEQAAQAPAETPAASAEAASSAAQATAETPAGELPVIDAVTTHAPEVPPAIDRDYPAKVRVKMETVEKTMKMDDGVEYRYWTFDGDVPGRMIRVREGDTVEVEFSNNPSSTVPHNVDFHAATGQGGGAAATFTAPGRTSTFSFKALQPGLYIYHCAVAPVGMHIANGMYGLILVEPKEGLPKVDKEFYIVQGDFYTKGKKGAQGLQPFDMDKAVAEQPEYVVFNGHVGSIAGDNALKAKAGETVRMYVGNGGPNLVSSFHVIGEIFDKVYVEGGKLINENVQSTIVPAGGSAIVEFKVDIPGSYTLVDHSIFRAFNKGALGQLKVEGAENPEIMTQKLSDTAYAGSGAASAPAASAPAASAPAASASEKSVY
# notes: source: endogenous, living N. gonorrhoeae FA1090 (WT and Δlaz) cells
# Molecular target: Purified Laz (for biolayer interferometry) (N. gonorrhoeae) (UniProt P07211)
# Test: BLI; purified Laz immobilised to a BLI sensor and incubated in increasing concentrations of AniA; both purified
binder,measurement,value
B1,binding,no binding
